From the supplement of paper PMC9433722
Structures can show the parent of a compound that is named as a salt. Some of the results follow. Repeats are few or missing, and single values can be far off.

Tested on: Saos-2
Experiment: cell viability (CCK-8) relative to DMSO control (% of control); higher = less cytotoxic
Conditions: 10 µM; 48 h

SMILES	cell viability
CN(C/C=C/c1ccccc1)Cc1cccc2ccccc12 [Naftifine·HCl]	107
COc1c(N2CCNC(C)C2)c(F)cc2c(=O)c(C(=O)O)cn(C3CC3)c12 (configuration not stated) [Gatifloxacin]	68.2
CC(C)C[C@H](NC(=O)[C@@H](COC(C)(C)C)NC(=O)[C@H](Cc1ccc(O)cc1)NC(=O)[C@H](CO)NC(=O)[C@H](Cc1c[nH]c2ccccc12)NC(=O)[C@H](Cc1cnc[nH]1)NC(=O)[C@@H]1CCC(=O)N1)C(=O)N[C@@H](CCCNC(=N)N)C(=O)N1CCC[C@H]1C(=O)NNC(N)=O [Goserelin Acetate]	57.8
CC(C)(C)NC(=O)[C@H]1CC[C@H]2[C@@H]3CC[C@H]4NC(=O)C=C[C@]4(C)[C@H]3CC[C@]12C [Finasteride]	70.9
C[C@H](CCC(=O)O)[C@H]1CC[C@H]2[C@@H]3[C@H](O)C[C@@H]4C[C@H](O)CC[C@]4(C)[C@H]3CC[C@]12C [Chenodeoxycholic Acid]	102
CC(=O)CCCCn1c(=O)c2c(ncn2C)n(C)c1=O [Pentoxifylline]	63.6
OC[C@H]1O[C@@H](n2cnc3c2N=CNC[C@H]3O)C[C@@H]1O [Pentostatin]	107
CC1=C(C/C=C(\C)CCC[C@H](C)CCC[C@H](C)CCCC(C)C)C(=O)c2ccccc2C1=O [Phytonadione]	105
Cc1cn(-c2cc(NC(=O)c3ccc(C)c(Nc4nccc(-c5cccnc5)n4)c3)cc(C(F)(F)F)c2)cn1 [Nilotinib]	66
CO/N=C(\C(=O)N[C@@H]1C(=O)N2C(C(=O)[O-])=C(C[N+]3(C)CCCC3)CS[C@H]12)c1csc(N)n1 [Cefepime·2HCl Hydrate]	59.4
CCN(CC)CC(=O)Nc1c(C)cccc1C [Lidocaine . hydrochloride . hydrate]	63.8
CO[C@H]1C[C@@H]2CC[C@@H](C)[C@@](O)(O2)C(=O)C(=O)N2CCCC[C@H]2C(=O)O[C@H]([C@H](C)C[C@@H]2CC[C@@H](OC(=O)C(C)(CO)CO)[C@H](OC)C2)CC(=O)[C@H](C)/C=C(\C)[C@@H](O)[C@@H](OC)C(=O)[C@H](C)C[C@H](C)/C=C/C=C/C=C/1C [Temsirolimus]	92.6
CC1(C)O[C@@H]2[C@@H](CO[C@@]3(COS(N)(=O)=O)OC(C)(C)O[C@@H]23)O1 [Topiramate]	104
CCNC(=O)CCC/C=C\C[C@@H]1[C@@H](/C=C/[C@@H](O)CCc2ccccc2)[C@H](O)C[C@@H]1O [Bimatoprost]	122
NC[C@H]1CC[C@H](C(=O)O)CC1 [Tranexamic Acid]	66.7
C#C[C@]1(O)CC[C@H]2[C@@H]3CCC4=CC(=O)CC[C@@H]4[C@H]3C(=C)C[C@@]21CC [Etonogestrel]	105
CC(=O)NC[C@H]1CN(c2ccc(N3CCOCC3)c(F)c2)C(=O)O1 [Linezolid]	70.4
CCCc1nc2c(C)cc(-c3nc4ccccc4n3C)cc2n1Cc1ccc(-c2ccccc2C(=O)O)cc1 [Telmisartan]	53.9
NS(=O)(=O)c1cc2c(cc1C(F)(F)F)NC(Cc1ccccc1)NS2(=O)=O (configuration not stated) [Bendroflumethiazide]	112
CC(=O)Nc1c(I)c(NC(C)=O)c(I)c(C(=O)O)c1I [Diatrizoate Meglumine]	109
CO[C@@]1(NC(=O)C2SC(=C(C(N)=O)C(=O)O)S2)C(=O)N2C(C(=O)O)=C(CSc3nnnn3C)CS[C@@H]21 (some centres not stated) [Cefotetan Disodium]	110
CC[C@]1(O)C[C@H]2CN(CCc3c([nH]c4ccccc34)[C@@](C(=O)OC)(c3cc4c(cc3OC)N(C=O)[C@H]3[C@@](O)(C(=O)OC)[C@H](OC(C)=O)[C@]5(CC)C=CCN6CC[C@]43[C@@H]65)C2)C1 [Vincristine Sulfate]	30.7
COCCOC(=O)C1=C(C)NC(C)=C(C(=O)OC(C)C)C1c1cccc([N+](=O)[O-])c1 (configuration not stated) [Nimodipine]	57
C[C@@H](c1ncncc1F)[C@](O)(Cn1cncn1)c1ccc(F)cc1F [Voriconazole]	83
COc1ccc2cc([C@H](C)C(=O)O)ccc2c1 [Naproxen]	54.9
CCCSc1ccc2[nH]c(NC(=O)OC)nc2c1 [Albendazole]	28.9
Cc1[nH]cnc1CN1CCc2c(c3ccccc3n2C)C1=O [Alosetron·HCl]	101

Shown with bars between the fields: entries from further up.
SMILES | cell viability
NC[C@H]1CC[C@H](C(=O)O)CC1 [Tranexamic Acid] | 66.7
C#C[C@]1(O)CC[C@H]2[C@@H]3CCC4=CC(=O)CC[C@@H]4[C@H]3C(=C)C[C@@]21CC [Etonogestrel] | 105
CC(=O)NC[C@H]1CN(c2ccc(N3CCOCC3)c(F)c2)C(=O)O1 [Linezolid] | 70.4
CCCc1nc2c(C)cc(-c3nc4ccccc4n3C)cc2n1Cc1ccc(-c2ccccc2C(=O)O)cc1 [Telmisartan] | 53.9
NS(=O)(=O)c1cc2c(cc1C(F)(F)F)NC(Cc1ccccc1)NS2(=O)=O (configuration not stated) [Bendroflumethiazide] | 112
